Experimental data from patent publication US20150337049A1.
These are yes or no findings as the source states them, for the method shown. A result given as binding can be weak or reduced; the word gives no strength.

Molecular target: human CD3 on the human T-cell line Jurkat (human)
Assay: FACS, Jurkat cells

binding | Binder
binds | IgG1-CD3-… (IgG1-huCLB-T3/4-F405L with L234F/L235E/D265A/N297Q/P331S) (antibody) heavy: EVQLVESGGGLVKPGGSLRLSCAASGFTFSSYGMFWVRQAPGKGLEWVATISRYSRYIYYPDSVKGRFTISRDNAKNSLYLQMNSLRAEDTAVYYCARRPLYGSSPDYWGQGTLVTVSSASTKGPSVFPLAPSSKSTSGGTAALGCLVKDYFPEPVTVSWNSGALTSGVHTFPAVLQSSGLYSLSSVVTVPSSSLGTQTYICNVNHKPSNTKVDKRVEPKSCDKTHTCPPCPAPEFEGGPSVFLFPPKPKDTLMISRTPEVTCVVVAVSHEDPEVKFNWYVDGVEVHNAKTKPREEQYQSTYRVVSVLTVLHQDWLNGKEYKCKVSNKALPASIEKTISKAKGQPREPQVYTLPPSREEMTKNQVSLTCLVKGFYPSDIAVEWESNGQPENNYKTTPPVLDSDGSFLLYSKLTVDKSRWQQGNVFSCSVMHEALHNHYTQKSLSLSPGK VL: EIVLTQSPATLSLSPGERATLSCSASSSVTYVHWYQQKPGQAPRLLIYDTSKLASGIPARFSGSGSGTDFTLTISSLEPEDFAVYYCFQGSGYPLTFGSGTKLEMR
binds | IgG1-CD3-LFLENQ (IgG1-huCLB-T3/4-F405L with L234F/L235E/N297Q) (antibody) heavy: EVQLVESGGGLVKPGGSLRLSCAASGFTFSSYGMFWVRQAPGKGLEWVATISRYSRYIYYPDSVKGRFTISRDNAKNSLYLQMNSLRAEDTAVYYCARRPLYGSSPDYWGQGTLVTVSSASTKGPSVFPLAPSSKSTSGGTAALGCLVKDYFPEPVTVSWNSGALTSGVHTFPAVLQSSGLYSLSSVVTVPSSSLGTQTYICNVNHKPSNTKVDKRVEPKSCDKTHTCPPCPAPEFEGGPSVFLFPPKPKDTLMISRTPEVTCVVVDVSHEDPEVKFNWYVDGVEVHNAKTKPREEQYQSTYRVVSVLTVLHQDWLNGKEYKCKVSNKALPAPIEKTISKAKGQPREPQVYTLPPSREEMTKNQVSLTCLVKGFYPSDIAVEWESNGQPENNYKTTPPVLDSDGSFLLYSKLTVDKSRWQQGNVFSCSVMHEALHNHYTQKSLSLSPGK VL: EIVLTQSPATLSLSPGERATLSCSASSSVTYVHWYQQKPGQAPRLLIYDTSKLASGIPARFSGSGSGTDFTLTISSLEPEDFAVYYCFQGSGYPLTFGSGTKLEMR
